Experimental data as given in the supplement of paper PMC6411743.
± gives the standard deviation of the averaged measurements. This is one part of the list.

Protein sequences, listed by entry. Tags and fused reporters are not part of them. Lines headed by an entry give the natural chain unless they say otherwise; changes in a name come on top.
UniProt O00487, whole entry: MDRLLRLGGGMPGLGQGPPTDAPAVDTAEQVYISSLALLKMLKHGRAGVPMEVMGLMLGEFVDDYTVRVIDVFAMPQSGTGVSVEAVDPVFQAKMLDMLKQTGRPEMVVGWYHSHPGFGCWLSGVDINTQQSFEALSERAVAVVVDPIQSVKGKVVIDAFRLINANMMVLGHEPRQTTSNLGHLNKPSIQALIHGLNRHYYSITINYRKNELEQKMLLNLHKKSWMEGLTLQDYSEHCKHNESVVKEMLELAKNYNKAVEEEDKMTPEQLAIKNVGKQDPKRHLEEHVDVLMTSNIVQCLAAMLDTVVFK
UniProt O14929: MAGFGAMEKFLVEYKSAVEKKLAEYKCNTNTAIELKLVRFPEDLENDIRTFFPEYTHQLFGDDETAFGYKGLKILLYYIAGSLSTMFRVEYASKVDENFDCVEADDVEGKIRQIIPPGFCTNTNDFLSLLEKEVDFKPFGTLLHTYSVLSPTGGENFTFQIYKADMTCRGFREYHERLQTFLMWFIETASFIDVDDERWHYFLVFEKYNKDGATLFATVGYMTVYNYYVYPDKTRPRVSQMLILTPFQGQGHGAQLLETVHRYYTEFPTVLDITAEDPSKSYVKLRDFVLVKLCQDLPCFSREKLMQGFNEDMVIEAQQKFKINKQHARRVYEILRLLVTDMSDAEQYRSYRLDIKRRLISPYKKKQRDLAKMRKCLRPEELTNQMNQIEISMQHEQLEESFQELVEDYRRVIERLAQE
UniProt Q5UCC4: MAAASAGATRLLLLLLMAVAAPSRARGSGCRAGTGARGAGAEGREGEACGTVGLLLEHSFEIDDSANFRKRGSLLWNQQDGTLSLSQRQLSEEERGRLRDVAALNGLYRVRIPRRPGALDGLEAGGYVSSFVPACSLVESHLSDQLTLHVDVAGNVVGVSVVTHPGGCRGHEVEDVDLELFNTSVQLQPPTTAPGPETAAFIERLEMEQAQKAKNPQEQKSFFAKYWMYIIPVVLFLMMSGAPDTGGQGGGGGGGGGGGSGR
UniProt O14907: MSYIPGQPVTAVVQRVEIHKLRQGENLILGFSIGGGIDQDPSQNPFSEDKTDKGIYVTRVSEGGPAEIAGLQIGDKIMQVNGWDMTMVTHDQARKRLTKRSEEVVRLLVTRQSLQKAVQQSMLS
UniProt O43390: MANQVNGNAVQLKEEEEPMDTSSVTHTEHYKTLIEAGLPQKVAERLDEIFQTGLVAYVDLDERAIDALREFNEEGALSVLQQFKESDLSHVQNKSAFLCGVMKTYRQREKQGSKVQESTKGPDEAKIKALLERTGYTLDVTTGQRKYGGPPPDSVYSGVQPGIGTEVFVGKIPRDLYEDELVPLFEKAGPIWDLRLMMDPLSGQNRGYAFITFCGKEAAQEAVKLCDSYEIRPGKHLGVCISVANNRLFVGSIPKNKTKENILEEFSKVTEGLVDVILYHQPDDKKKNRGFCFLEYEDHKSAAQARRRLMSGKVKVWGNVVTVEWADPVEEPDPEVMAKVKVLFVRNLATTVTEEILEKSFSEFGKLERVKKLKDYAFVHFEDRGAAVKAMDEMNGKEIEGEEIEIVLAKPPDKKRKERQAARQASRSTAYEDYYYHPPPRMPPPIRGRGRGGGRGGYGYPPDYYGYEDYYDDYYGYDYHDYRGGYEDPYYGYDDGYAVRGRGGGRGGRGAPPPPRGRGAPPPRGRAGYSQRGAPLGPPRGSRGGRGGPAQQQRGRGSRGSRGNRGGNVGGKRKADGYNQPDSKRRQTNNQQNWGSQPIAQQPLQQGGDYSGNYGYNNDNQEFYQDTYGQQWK
UniProt O00429, whole entry: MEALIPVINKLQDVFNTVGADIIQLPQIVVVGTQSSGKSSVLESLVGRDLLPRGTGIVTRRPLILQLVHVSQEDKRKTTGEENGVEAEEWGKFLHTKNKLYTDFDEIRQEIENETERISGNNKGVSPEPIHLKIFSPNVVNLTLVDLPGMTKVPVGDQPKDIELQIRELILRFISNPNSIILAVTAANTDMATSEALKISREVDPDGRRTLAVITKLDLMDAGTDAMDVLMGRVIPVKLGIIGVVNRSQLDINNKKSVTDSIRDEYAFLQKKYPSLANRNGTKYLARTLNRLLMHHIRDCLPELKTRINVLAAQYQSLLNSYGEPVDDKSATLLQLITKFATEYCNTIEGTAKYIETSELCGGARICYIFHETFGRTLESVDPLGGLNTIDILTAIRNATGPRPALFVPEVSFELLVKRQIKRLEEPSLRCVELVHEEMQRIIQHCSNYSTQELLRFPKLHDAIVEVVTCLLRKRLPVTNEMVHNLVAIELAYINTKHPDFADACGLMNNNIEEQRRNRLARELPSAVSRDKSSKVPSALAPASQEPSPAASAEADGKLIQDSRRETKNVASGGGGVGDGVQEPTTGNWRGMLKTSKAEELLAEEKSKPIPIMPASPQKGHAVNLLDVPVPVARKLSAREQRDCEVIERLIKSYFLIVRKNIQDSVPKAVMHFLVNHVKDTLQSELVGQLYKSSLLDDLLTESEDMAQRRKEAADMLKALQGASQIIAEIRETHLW
UniProt O00291: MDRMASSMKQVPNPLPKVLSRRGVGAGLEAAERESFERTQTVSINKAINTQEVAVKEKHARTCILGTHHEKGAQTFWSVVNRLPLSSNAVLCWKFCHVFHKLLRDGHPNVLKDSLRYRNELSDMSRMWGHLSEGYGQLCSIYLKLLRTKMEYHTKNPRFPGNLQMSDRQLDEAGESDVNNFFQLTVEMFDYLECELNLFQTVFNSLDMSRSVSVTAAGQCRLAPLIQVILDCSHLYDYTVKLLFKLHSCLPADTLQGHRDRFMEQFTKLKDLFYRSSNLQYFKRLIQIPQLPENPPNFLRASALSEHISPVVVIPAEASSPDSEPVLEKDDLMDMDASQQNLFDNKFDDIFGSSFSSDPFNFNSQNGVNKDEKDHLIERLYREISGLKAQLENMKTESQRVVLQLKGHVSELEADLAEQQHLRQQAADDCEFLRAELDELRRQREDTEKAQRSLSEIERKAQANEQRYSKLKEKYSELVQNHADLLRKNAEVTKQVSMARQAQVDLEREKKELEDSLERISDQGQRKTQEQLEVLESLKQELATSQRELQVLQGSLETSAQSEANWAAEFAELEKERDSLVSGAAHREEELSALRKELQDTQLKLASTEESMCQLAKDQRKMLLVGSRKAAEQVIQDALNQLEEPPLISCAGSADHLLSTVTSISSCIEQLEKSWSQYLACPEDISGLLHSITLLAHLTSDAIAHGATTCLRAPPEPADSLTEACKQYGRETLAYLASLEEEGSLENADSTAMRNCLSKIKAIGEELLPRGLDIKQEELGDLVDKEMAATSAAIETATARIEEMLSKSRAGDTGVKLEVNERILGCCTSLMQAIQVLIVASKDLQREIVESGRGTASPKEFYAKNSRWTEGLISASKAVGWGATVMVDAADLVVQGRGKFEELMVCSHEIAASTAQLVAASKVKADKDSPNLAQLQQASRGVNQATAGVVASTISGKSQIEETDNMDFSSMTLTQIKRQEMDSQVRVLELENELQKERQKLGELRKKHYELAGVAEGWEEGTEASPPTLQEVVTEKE
UniProt Q96CP6, whole entry: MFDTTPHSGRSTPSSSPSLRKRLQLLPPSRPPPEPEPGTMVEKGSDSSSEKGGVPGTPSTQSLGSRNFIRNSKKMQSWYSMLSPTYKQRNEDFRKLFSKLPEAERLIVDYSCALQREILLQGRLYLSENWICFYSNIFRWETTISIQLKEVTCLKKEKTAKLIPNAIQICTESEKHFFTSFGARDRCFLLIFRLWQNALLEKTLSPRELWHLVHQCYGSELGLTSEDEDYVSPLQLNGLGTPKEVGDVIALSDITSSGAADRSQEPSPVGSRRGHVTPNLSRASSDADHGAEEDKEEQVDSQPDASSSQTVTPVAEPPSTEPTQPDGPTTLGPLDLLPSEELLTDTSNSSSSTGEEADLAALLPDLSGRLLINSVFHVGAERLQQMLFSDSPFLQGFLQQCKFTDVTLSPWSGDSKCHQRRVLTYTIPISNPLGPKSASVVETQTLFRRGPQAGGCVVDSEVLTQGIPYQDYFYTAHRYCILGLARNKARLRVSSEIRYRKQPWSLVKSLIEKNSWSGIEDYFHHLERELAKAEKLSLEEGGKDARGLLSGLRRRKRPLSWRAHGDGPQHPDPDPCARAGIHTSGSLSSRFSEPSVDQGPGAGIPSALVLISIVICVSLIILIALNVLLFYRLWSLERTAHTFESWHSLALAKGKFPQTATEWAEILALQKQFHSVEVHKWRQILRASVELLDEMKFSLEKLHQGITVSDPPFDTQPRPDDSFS
UniProt O60476: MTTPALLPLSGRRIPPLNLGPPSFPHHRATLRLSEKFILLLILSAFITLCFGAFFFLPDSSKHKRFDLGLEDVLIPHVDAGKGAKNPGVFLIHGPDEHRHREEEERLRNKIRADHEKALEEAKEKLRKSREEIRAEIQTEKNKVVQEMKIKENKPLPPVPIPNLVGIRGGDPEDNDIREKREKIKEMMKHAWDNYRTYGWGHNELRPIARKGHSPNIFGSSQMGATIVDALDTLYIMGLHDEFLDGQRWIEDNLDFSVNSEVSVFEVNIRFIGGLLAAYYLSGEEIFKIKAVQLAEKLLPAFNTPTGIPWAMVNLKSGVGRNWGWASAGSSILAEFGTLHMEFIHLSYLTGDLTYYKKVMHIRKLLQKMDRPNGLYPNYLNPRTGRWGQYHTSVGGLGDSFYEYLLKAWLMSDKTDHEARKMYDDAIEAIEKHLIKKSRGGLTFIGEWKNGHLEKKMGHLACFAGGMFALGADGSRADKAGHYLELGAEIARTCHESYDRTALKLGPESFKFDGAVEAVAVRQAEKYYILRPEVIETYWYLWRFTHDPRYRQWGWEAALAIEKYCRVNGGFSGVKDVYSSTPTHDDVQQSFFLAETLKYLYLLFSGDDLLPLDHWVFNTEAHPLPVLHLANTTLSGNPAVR
UniProt O00115: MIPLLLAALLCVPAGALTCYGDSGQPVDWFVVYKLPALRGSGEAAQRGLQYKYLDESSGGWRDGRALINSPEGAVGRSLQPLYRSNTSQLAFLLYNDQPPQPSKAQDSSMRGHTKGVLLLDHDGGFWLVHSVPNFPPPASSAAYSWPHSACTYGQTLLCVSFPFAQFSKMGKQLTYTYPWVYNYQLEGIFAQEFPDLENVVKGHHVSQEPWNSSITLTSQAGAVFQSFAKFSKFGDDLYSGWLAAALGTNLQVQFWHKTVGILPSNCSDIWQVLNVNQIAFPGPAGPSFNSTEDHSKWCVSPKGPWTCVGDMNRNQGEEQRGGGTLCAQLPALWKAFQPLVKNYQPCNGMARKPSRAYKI
UniProt O43709: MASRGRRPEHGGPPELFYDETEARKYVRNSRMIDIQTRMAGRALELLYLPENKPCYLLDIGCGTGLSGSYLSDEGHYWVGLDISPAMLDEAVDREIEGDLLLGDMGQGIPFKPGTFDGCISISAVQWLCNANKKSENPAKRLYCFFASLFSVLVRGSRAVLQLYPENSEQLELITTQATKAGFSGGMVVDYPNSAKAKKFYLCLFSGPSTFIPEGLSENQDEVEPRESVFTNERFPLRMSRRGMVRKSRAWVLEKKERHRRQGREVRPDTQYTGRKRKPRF
UniProt O14974: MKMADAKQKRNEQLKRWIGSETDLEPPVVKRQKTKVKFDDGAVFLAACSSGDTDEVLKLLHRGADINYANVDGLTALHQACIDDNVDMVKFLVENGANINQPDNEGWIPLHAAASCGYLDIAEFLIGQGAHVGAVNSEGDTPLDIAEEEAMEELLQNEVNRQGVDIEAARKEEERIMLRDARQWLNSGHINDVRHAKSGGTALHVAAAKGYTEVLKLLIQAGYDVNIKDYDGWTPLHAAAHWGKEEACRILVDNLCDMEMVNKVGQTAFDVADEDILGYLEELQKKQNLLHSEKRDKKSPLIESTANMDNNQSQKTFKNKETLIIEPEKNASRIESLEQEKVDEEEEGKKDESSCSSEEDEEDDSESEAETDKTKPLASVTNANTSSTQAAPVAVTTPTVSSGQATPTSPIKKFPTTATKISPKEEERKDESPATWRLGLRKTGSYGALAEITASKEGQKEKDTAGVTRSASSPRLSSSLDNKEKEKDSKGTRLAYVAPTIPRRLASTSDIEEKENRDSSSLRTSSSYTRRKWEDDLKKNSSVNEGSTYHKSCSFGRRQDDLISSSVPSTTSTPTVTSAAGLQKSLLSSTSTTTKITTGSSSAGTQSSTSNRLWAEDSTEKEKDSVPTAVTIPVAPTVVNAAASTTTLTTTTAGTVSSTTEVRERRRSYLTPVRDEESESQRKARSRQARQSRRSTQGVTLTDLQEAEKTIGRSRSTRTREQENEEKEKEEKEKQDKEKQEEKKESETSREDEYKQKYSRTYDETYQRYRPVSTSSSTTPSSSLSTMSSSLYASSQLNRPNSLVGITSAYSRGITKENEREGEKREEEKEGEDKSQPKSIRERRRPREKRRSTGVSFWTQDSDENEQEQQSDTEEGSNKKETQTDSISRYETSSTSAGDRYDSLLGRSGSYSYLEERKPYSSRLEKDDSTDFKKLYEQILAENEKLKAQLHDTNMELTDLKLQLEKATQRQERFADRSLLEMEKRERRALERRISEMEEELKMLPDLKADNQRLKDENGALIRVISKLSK

Compound: Nc1nc2c(ncn2[C@@H]2O[C@H](COP(=O)(O)OP(=O)(O)OP(=O)(O)O)[C@@H](O)[C@H]2O)c(=O)[nH]1 [guanosine triphosphate]
Assay: NP40-soluble protein abundance relative to vehicle (solubility fold change) (ratio); higher = more soluble protein in presence of GTP
Summary of the method: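 Each value is a fold change relative to the detergent-processed vehicle, calculated per replicate from vsn-normalised intensities. Jurkat crude lysate received eight concentrations (0.1 to 10 mM) for 10 min at room temperature and 3 min at 37 °C, then was solubilised in 0.8% NP40 with benzonase (60 min, 4 °C). The ultracentrifuged supernatant was TMT-labelled and run by LC-MS/MS in three independent experiments.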

Row | Target | NP40-soluble protein abundance (concentration: 0.1mM) | NP40-soluble protein abundance (concentration: 0.5mM) | NP40-soluble protein abundance (concentration: 1mM) | NP40-soluble protein abundance (concentration: 2mM) | NP40-soluble protein abundance (concentration: 4mM) | NP40-soluble protein abundance (concentration: 6mM) | NP40-soluble protein abundance (concentration: 8mM) | NP40-soluble protein abundance (concentration: 10mM)
1 | MRPS12 (UniProt O15235) | 1.11 ± 0.14 | 1.23 ± 0.26 | 1.34 ± 0.37 | 1.47 ± 0.48 | 1.51 ± 0.47 | 1.44 ± 0.45 | 1.38 ± 0.44 | 1.3 ± 0.43
2 | UniProt O00487 | 0.992 ± 0.049 | 1.03 ± 0.098 | 0.974 ± 0.12 | 1.01 ± 0.15 | 1.01 ± 0.12 | 1.04 ± 0.16 | 1 ± 0.13 | 0.955 ± 0.14
3 | HAT1 (UniProt O14929) | 1.05 ± 0.057 | 1.03 ± 0.051 | 0.942 ± 0.017 | 0.948 ± 0.081 | 0.939 ± 0.05 | 0.914 ± 0.055 | 0.893 ± 0.051 | 0.869 ± 0.1
4 | M0R2A0 and related entries (UniProt Q5UCC4) | 0.98 ± 0.025 | 1.03 ± 0.068 | 0.991 ± 0.083 | 1.03 ± 0.038 | 0.94 ± 0.054 | 1.01 ± 0.1 | 0.953 ± 0.055 | 1 ± 0.088
5 | TAX1BP3 (UniProt O14907) | 1.05 ± 0.15 | 0.993 ± 0.053 | 1.07 ± 0.11 | 1.02 ± 0.07 | 0.962 ± 0.015 | 1.03 ± 0.1 | 0.994 ± 0.074 | 0.996 ± 0.05
6 | UniProt O15391 | 0.952 ± 0.025 | 1.01 ± 0.079 | 1.02 ± 0.058 | 1.02 ± 0.078 | 0.991 ± 0.064 | 0.991 ± 0.099 | 1.02 ± 0.032 | 1.03 ± 0.044
7 | AP3B1 (UniProt O00203) | 1.004 ± 0.0019 | 1.05 ± 0.028 | 0.98 ± 0.033 | 1.02 ± 0.044 | 0.991 ± 0.043 | 0.998 ± 0.056 | 0.994 ± 0.044 | 0.991 ± 0.015
8 | UniProt O15379 and related entries | 1.11 ± 0.11 | 1.09 ± 0.19 | 1.12 ± 0.12 | 1.07 ± 0.17 | 1.16 ± 0.16 | 1.11 ± 0.19 | 1.14 ± 0.19 | 1.07 ± 0.21
9 | UniProt O60645 and related entries | 1.03 ± 0.057 | 1.02 ± 0.034 | 1.01 ± 0.046 | 0.98 ± 0.052 | 0.996 ± 0.051 | 0.982 ± 0.065 | 0.978 ± 0.072 | 0.976 ± 0.055
10 | UniProt O14686 and related entries | 0.996 ± 0.037 | 1.02 ± 0.062 | 1.06 ± 0.024 | 1.04 ± 0.065 | 1.06 ± 0.064 | 1.07 ± 0.043 | 1.14 ± 0.078 | 1.1 ± 0.087
11 | UniProt O15226 and related entries | 0.98 ± 0.03 | 0.975 ± 0.035 | 0.972 ± 0.032 | 1.01 ± 0.018 | 1.02 ± 0.059 | 1.07 ± 0.043 | 1.12 ± 0.078 | 1.14 ± 0.056
12 | SLC35A4 (UniProt L0R6Q1) | 0.889 ± 0.19 | 0.805 ± 0.12 | 1.03 ± 0.22 | 0.987 ± 0.07 | 0.997 ± 0.2 | 0.989 ± 0.086 | 0.859 ± 0.2 | 1.01 ± 0.15
13 | M0QZR4 (UniProt Q92888) | 0.985 ± 0.044 | 0.989 ± 0.041 | 0.97 ± 0.059 | 0.957 ± 0.056 | 0.967 ± 0.035 | 0.951 ± 0.039 | 0.967 ± 0.043 | 0.945 ± 0.03
14 | HNRNPR (UniProt O43390) | 1.01 ± 0.033 | 1.08 ± 0.077 | 1.06 ± 0.11 | 1.14 ± 0.18 | 1.17 ± 0.2 | 1.19 ± 0.2 | 1.18 ± 0.19 | 1.17 ± 0.16
15 | UniProt O00429 and related entries | 1.03 ± 0.021 | 0.989 ± 0.02 | 0.963 ± 0.023 | 0.951 ± 0.027 | 0.934 ± 0.058 | 0.928 ± 0.029 | 0.912 ± 0.039 | 0.904 ± 0.054
16 | M0R2U2 and related entries (UniProt P22087) | 1.02 ± 0.054 | 1.03 ± 0.032 | 1.08 ± 0.068 | 1.21 ± 0.056 | 1.52 ± 0.068 | 1.77 ± 0.082 | 2.13 ± 0.11 | 2.47 ± 0.083
17 | UniProt O00291 and related entries | 1.04 ± 0.045 | 1.01 ± 0.072 | 1.06 ± 0.068 | 1.06 ± 0.12 | 1.08 ± 0.093 | 1.09 ± 0.04 | 1.11 ± 0.11 | 1.13 ± 0.13
18 | M0QYV5 and related entries (UniProt Q16740) | 0.983 ± 0.033 | 0.953 ± 0.064 | 1.06 ± 0.06 | 1.02 ± 0.091 | 1.04 ± 0.075 | 0.992 ± 0.067 | 1.03 ± 0.041 | 1.03 ± 0.031
19 | UniProt O14967 and related entries | 1.04 ± 0.029 | 0.977 ± 0.031 | 0.979 ± 0.1 | 0.951 ± 0.098 | 0.965 ± 0.07 | 0.913 ± 0.071 | 0.965 ± 0.12 | 0.927 ± 0.11
20 | M0QZ12 and related entries (UniProt Q96CP6) | 0.974 ± 0.057 | 1.02 ± 0.019 | 0.979 ± 0.016 | 1.03 ± 0.023 | 1.05 ± 0.011 | 1.02 ± 0.076 | 0.991 ± 0.035 | 1.01 ± 0.042
21 | MAN1A2 (UniProt O60476) | 1.06 ± 0.098 | 1.08 ± 0.04 | 0.955 ± 0.015 | 1.01 ± 0.094 | 0.952 ± 0.045 | 0.969 ± 0.041 | 0.92 ± 0.022 | 0.947 ± 0.031
22 | BRD4 (UniProt O60885) | 0.955 ± 0.075 | 0.972 ± 0.072 | 1.01 ± 0.093 | 0.962 ± 0.11 | 0.967 ± 0.093 | 0.98 ± 0.091 | 1.02 ± 0.061 | 1.02 ± 0.089
23 | UniProt O00115 and related entries | 0.912 ± 0.1 | 0.868 ± 0.11 | 0.884 ± 0.13 | 0.85 ± 0.15 | 0.846 ± 0.12 | 0.877 ± 0.15 | 0.871 ± 0.12 | 0.845 ± 0.13
24 | UniProt O43709 | 1.03 ± 0.038 | 1.06 ± 0.042 | 1.07 ± 0.025 | 1.03 ± 0.053 | 1.07 ± 0.052 | 1.09 ± 0.043 | 1.16 ± 0.085 | 1.12 ± 0.03
25 | UniProt O14974 and related entries | 0.964 ± 0.044 | 1 ± 0.041 | 1.03 ± 0.066 | 1.01 ± 0.085 | 0.999 ± 0.069 | 1.05 ± 0.071 | 1.1 ± 0.08 | 1.11 ± 0.1
26 | TIMM44 (UniProt O43615) | 0.992 ± 0.035 | 0.989 ± 0.041 | 0.993 ± 0.057 | 0.946 ± 0.058 | 0.954 ± 0.09 | 0.914 ± 0.082 | 0.946 ± 0.058 | 0.93 ± 0.064
27 | UniProt O43852 and related entries | 0.872 ± 0.044 | 0.89 ± 0.095 | 0.936 ± 0.073 | 0.896 ± 0.1 | 0.878 ± 0.097 | 0.915 ± 0.11 | 0.888 ± 0.088 | 0.908 ± 0.093
28 | CBX4 (UniProt O00257) | 1.08 ± 0.044 | 1.08 ± 0.095 | 1.12 ± 0.046 | 1.13 ± 0.065 | 1.11 ± 0.086 | 1.28 ± 0.11 | 1.26 ± 0.13 | 1.38 ± 0.14

Copied from the list.
Entry of M0QZ12 and related entries (UniProt Q96CP6) under NP40-soluble protein abundance (concentration: 8mM): 0.991 ± 0.035
Entry of M0QYV5 and related entries (UniProt Q16740) under NP40-soluble protein abundance (concentration: 2mM): 1.02 ± 0.091
